Publication PMC6386368, “Multimerization of Homo sapiens TRPA1 ion channel cytoplasmic domains” (PLoS ONE, 2019)
No constants are given. Whether binding was seen depends on the method and setting. For some of these results: In cells and extracts the contact can be indirect. Some binding calls cover weakened binding; strength is not graded here. Tags and fused reporters may be left off the sequences shown.

T1: MBPCC1: maltose-binding protein fusion of the human TRPA1 C-terminal coiled-coil CC1 (amino acids A1036-T1078) (human) (UniProt O75762)
T1 sequence: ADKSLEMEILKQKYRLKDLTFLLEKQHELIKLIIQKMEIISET

B1: TRPA1 ARD construct (N-terminal ankyrin repeat domains, amino acids 446-639) (domain or fragment, human, UniProt O75762 446-639, looked up)
chain: KKSPLHFAASYGRINTCQRLLQDISDTRLLNEGDLHGMTPLHLAAKNGHDKVVQLLLKKGALFLSDHNGWTALHHASMGGYTQTMKVILDTNLKCTDRLDEDGNTALHFAAREGHAKAVALLLSHNADIVLNKQQASFLHLALHNKRKEVVLTIIRSKRWDECLKIFSHNSPGNKCPITEMIEYLPECMKVLLD
notes: human TRPA1 ankyrin repeat domains with resolvable density in the cryoEM structure, amino acids 446-639; Cloned into pET28b (Nhe I and Sac I) in frame with an N-terminal poly-histidine tag; also called ARDs; N-terminal ARD; source: E. coli BL21(DE3), co-expressed with MBPCC1, in cleared lysate; not shown: poly-histidine, N-terminal, kept

Tests used:
[1] = target: T1, MBPCC1: maltose-binding protein fusion of the human TRPA1 C-terminal coiled-coil CC1 (amino acids A1036-T1078) (human); experiment: pull-down; amylose resin co-purification from cleared lysate of bacteria co-expressing ARD and MBPCC1; incubation and 4 washes at 4 C, Buffer A1T, with or without IP6 and/or AITC; anti-His Western blot
[2] = target: T1, MBPCC1: maltose-binding protein fusion of the human TRPA1 C-terminal coiled-coil CC1 (amino acids A1036-T1078) (human); experiment: pull-down; amylose resin co-purification from cleared lysate of bacteria co-expressing ARD and MBPCC1; incubation and 4 washes at 37 C, Buffer A1T, with or without IP6 and/or AITC; anti-His Western blot
[3] = target: MBPCC2: maltose-binding protein fusion of human TRPA1 amino acids D1082-K1113 (CC2) (human) (UniProt O75762); experiment: SEC; MBPCC2 alone, absence or presence of IP6; Superdex 200 Increase, Buffer A1T (150 NaCl, 20 TrisHCl, pH 7.8, 2 mM TCEP); both purified
[4] = target: T1, MBPCC1: maltose-binding protein fusion of the human TRPA1 C-terminal coiled-coil CC1 (amino acids A1036-T1078) (human); experiment: SEC; purified MBPCC1 at a low concentration incubated with MBPCC2 and run together, absence or presence of IP6; Superdex 200 Increase, Buffer A1T; both purified

Binder	binding [1]	binding [2]	binding [3]	binding [4]
B1	binds	binds		
DSHCSFQDRFKKEQMEQRNSRWNTVLRAVKAK (domain or fragment, UniProt O75762 1082-1113) [MBPCC2: maltose-binding protein fusion of human TRPA1 amino acids D1082-K1113 (CC2)]			no binding	no binding
